This is one part of the list. Small differences around the control level are noise.

Sequences of proteins named here, by UniProt entry; tags and fusion partners are left off. A change or cut given only in a name is not applied to a line headed by its entry.
UniProt Q8K3X4: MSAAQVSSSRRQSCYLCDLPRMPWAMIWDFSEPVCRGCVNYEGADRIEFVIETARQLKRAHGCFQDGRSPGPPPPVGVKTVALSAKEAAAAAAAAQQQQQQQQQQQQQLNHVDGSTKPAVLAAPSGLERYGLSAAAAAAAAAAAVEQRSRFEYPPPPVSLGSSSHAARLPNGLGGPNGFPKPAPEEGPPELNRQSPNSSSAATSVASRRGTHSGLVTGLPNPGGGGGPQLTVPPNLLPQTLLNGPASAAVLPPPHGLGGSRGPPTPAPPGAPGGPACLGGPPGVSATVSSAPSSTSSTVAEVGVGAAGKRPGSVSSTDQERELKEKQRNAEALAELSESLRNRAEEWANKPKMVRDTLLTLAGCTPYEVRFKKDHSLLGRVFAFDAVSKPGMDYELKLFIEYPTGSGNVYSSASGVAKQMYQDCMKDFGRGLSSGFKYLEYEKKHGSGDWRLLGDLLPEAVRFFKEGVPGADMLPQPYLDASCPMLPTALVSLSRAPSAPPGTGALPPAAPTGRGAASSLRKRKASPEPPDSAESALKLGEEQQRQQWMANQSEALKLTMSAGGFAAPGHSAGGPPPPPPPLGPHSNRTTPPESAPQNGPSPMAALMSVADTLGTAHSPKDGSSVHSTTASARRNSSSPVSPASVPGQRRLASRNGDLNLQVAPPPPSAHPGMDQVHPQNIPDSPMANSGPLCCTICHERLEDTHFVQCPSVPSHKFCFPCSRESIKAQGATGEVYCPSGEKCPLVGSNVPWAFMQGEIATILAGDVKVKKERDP
UniProt Q8R087: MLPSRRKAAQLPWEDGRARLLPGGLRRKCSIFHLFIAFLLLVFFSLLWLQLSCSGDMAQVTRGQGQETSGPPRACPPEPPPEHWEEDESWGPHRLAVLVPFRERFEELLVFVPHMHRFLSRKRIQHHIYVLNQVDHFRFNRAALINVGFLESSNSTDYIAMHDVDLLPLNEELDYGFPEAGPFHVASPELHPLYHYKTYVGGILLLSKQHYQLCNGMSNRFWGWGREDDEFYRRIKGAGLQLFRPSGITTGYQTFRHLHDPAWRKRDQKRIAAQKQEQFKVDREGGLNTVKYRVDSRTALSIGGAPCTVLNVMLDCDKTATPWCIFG
UniProt Q8QZX2: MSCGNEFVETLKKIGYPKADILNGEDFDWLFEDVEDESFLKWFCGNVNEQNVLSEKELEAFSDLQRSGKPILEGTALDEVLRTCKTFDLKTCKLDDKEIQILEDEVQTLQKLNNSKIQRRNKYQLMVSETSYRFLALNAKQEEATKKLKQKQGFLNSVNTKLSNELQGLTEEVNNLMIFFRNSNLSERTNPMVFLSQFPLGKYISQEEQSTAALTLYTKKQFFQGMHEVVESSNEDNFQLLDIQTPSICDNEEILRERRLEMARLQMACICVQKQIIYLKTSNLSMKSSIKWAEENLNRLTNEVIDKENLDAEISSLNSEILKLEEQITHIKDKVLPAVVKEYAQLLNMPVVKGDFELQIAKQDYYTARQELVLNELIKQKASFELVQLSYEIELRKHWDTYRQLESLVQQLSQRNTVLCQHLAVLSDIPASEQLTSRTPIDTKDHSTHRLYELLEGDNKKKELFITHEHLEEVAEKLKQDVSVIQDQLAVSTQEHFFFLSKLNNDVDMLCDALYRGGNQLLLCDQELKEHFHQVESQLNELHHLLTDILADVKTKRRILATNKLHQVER
UniProt Q8K3G9: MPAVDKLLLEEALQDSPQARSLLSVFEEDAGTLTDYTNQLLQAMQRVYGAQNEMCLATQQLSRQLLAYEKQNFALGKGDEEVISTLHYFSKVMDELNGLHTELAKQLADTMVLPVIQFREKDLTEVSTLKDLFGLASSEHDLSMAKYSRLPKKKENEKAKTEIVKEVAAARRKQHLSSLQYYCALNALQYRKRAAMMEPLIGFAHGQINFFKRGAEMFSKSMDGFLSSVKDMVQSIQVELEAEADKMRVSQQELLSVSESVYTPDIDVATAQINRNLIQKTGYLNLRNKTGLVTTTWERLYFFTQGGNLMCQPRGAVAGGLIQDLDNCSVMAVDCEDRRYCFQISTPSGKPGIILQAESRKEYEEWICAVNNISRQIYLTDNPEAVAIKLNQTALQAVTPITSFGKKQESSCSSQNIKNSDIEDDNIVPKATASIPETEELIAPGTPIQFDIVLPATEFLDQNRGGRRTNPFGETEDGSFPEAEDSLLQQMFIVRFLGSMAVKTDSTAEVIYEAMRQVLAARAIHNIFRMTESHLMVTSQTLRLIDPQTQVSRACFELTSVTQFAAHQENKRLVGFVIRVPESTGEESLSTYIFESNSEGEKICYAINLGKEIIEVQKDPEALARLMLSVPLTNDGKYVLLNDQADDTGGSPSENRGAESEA
UniProt Q8K371: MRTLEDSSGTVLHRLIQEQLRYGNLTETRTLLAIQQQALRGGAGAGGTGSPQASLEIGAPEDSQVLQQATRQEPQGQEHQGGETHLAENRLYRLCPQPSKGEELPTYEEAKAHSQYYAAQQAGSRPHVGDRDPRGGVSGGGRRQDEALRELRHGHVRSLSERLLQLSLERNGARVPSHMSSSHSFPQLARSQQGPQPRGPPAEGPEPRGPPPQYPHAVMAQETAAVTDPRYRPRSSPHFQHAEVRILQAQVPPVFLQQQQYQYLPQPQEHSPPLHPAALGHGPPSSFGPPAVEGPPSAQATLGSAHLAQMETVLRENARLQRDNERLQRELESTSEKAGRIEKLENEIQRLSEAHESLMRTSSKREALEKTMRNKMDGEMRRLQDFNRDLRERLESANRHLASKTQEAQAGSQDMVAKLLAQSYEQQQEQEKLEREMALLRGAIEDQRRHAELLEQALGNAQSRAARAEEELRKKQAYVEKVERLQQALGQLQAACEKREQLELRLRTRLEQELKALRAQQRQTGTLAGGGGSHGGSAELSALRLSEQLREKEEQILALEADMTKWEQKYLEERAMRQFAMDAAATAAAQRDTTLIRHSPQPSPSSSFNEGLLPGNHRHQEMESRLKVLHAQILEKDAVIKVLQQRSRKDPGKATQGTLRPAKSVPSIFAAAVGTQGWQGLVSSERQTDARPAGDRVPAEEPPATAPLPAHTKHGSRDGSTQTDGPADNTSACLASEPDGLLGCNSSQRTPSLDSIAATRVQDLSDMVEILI
UniProt Q8R1H0: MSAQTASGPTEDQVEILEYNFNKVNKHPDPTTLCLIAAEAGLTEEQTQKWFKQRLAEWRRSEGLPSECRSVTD
UniProt Q8R0L1: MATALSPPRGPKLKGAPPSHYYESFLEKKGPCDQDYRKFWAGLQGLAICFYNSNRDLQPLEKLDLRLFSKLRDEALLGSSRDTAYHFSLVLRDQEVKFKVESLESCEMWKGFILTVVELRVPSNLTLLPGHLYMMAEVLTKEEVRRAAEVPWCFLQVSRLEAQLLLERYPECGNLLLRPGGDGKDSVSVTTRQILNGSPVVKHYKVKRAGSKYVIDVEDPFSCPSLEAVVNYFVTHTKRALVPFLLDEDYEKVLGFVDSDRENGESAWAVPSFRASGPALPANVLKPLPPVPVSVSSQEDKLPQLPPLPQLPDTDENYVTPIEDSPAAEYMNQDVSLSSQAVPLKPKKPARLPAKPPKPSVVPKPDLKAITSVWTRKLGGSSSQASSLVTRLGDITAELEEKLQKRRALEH
UniProt Q8R151: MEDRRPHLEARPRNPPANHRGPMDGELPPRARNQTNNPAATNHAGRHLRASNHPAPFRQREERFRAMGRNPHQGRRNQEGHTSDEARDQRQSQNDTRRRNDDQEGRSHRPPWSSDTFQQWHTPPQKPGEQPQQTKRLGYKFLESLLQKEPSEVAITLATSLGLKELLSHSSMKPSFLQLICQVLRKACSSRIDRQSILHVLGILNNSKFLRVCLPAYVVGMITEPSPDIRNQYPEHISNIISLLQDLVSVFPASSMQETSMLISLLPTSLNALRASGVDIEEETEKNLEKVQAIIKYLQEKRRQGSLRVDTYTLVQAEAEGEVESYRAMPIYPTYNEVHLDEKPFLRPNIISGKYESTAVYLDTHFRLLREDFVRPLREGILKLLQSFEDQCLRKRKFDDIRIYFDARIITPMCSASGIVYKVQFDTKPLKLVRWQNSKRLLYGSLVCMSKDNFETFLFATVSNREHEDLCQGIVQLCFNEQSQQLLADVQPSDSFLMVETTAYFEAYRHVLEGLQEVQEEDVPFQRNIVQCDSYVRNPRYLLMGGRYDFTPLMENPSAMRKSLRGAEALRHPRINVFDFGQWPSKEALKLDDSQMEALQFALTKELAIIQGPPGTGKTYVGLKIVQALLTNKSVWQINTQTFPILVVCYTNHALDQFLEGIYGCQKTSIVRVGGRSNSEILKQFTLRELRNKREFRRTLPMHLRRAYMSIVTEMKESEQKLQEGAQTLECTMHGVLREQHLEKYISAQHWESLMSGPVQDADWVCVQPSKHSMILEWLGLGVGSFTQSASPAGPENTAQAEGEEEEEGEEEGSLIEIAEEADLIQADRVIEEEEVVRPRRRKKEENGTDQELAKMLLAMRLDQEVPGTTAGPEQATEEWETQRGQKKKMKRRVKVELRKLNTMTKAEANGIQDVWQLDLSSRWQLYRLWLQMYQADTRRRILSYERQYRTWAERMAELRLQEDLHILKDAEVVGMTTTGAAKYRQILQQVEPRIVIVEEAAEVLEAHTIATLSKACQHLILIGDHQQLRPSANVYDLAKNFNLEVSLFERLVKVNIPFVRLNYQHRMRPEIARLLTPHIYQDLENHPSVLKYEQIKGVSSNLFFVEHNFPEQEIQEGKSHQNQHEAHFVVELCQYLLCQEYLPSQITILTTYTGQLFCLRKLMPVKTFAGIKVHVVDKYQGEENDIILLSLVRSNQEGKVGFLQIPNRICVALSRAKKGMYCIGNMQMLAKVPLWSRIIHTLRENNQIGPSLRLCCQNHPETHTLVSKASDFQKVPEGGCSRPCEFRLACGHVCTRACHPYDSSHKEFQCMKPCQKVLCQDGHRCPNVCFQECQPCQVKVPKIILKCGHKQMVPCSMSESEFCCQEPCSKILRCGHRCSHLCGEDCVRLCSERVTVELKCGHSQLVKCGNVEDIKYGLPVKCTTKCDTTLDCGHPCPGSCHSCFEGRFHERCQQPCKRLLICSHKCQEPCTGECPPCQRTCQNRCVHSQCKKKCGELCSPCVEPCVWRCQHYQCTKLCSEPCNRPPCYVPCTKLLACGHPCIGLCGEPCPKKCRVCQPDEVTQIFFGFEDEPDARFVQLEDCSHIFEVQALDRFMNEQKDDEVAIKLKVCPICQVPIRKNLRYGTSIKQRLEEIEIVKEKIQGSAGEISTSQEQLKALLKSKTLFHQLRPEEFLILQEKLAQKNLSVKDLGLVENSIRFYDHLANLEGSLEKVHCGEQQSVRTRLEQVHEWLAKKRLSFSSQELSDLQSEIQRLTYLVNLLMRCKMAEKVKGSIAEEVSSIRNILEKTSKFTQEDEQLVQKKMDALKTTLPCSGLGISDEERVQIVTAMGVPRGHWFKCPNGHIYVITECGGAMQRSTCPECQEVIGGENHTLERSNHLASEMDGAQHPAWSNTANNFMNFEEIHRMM
UniProt Q8K2P6: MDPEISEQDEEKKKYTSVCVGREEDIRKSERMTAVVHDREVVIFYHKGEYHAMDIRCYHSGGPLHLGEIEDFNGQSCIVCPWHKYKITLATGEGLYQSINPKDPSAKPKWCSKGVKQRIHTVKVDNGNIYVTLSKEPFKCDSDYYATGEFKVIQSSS
UniProt Q8R089: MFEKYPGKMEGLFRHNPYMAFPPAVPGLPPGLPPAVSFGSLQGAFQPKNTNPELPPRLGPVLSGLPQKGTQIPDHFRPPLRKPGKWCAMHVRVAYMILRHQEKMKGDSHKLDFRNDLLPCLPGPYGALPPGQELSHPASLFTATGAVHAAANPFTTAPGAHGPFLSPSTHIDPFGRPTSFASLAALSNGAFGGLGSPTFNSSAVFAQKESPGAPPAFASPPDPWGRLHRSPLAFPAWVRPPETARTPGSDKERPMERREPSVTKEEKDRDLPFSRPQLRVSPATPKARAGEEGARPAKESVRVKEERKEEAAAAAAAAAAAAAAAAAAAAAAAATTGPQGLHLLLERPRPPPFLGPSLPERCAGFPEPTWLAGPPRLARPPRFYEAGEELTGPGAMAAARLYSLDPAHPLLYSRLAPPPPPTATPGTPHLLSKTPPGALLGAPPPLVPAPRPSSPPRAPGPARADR
UniProt Q8R2L5: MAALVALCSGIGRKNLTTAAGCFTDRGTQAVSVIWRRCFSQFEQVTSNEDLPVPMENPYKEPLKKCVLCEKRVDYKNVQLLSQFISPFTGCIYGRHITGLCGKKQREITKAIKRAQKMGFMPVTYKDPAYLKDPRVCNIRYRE
UniProt Q8K4F5: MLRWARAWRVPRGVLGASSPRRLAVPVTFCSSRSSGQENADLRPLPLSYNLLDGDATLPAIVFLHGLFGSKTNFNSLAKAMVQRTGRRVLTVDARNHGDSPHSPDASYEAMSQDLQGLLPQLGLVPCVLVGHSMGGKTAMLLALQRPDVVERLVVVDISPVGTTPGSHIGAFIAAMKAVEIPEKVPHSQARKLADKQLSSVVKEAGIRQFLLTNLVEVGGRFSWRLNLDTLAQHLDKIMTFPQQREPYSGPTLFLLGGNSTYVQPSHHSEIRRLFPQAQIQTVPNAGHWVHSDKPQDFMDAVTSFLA

Compound in this experiment: CN[C@@H]1C[C@H]2O[C@@](C)([C@@H]1OC)n1c3ccccc3c3c4c(c5c6ccccc6n2c5c31)C(=O)NC4 [staurosporine]
Briefly: log2 fold change of tryptic peptide abundance, ligand vs vehicle (limited proteolysis) (log2 ratio); higher = more trypsin-susceptible (destabilized). To be noted: ligand concentration: 20 uM; sample: mouse liver crude lysate; replicate design: treated separately.
Take “UniProt Q8K337 (peptide sequence: VVNEELYR, peptide start residue: 642)”: the log2 fold change is 0.205.

Turning to “UniProt Q8K3X4 (peptide sequence: RPGSVSSTDQER, peptide start residue: 310)”, the log2 fold change was -0.844.

For “UniProt Q8K4Z3 (peptide sequence: GSETMAGAAVK, peptide start residue: 42)”, the log2 fold change is -0.581.

Take “UniProt Q8R079 (peptide sequence: EKWEGFPK, peptide start residue: 75)”: the log2 fold change is -0.348.

With “UniProt Q8K4Q8 (peptide sequence: FGIQEGTQCTKCK, peptide start residue: 19)”, the log2 fold change turned out to be 0.118.

Consider “UniProt Q8K2Y9 (peptide sequence: TEILHFIDKAK, peptide start residue: 86)”, for which the log2 fold change was -0.499.

In the case of “UniProt Q8R173 (peptide sequence: KTKWMNMK, peptide start residue: 262)”, the log2 fold change is -0.0406.

On to “UniProt Q8R1S4 (peptide sequence: RTPSTKPSVR, peptide start residue: 595)”, for which the log2 fold change was -0.644.

Turning to “UniProt Q8R2H9 (peptide sequence: QHLQQVLK, peptide start residue: 258)”, the log2 fold change was -0.444.

For “UniProt Q8K268 (peptide sequence: ICVVGENGAGK, peptide start residue: 521)”, the log2 fold change was -0.246.

With “UniProt Q8R087 (peptide sequence: KAAQLPWEDGR, peptide start residue: 7)”, the log2 fold change came out at 0.431.

Take “UniProt Q8QZX2 (peptide sequence: KHWDTYR, peptide start residue: 397)”: the log2 fold change is -0.153.

For the target “UniProt Q8R0G9 (peptide sequence: GSESMVFETTTKNETVAHEDKTK, peptide start residue: 497)”, the log2 fold change was -0.521.

For the target “UniProt Q8K400 (peptide sequence: HAHEMMLK, peptide start residue: 1136)”, the log2 fold change worked out at 0.323.

With “UniProt Q8K1I3 (peptide sequence: RNDYLLGFLSDESR, peptide start residue: 153)”, the log2 fold change is -0.488.

On to “UniProt Q8K3G9 (peptide sequence: RKQHLSSLQYYCALNALQYR, peptide start residue: 172)”, for which the log2 fold change is -0.499.

As for “UniProt Q8K2H3 (peptide sequence: AERHLPEDIKK, peptide start residue: 625)”, the log2 fold change was 0.104.

Take “UniProt Q8K371 (peptide sequence: TPSLDSIAATR, peptide start residue: 750)”: the log2 fold change was found to be 0.61.

For “UniProt Q8R0S1 (peptide sequence: TVDEDPDERR, peptide start residue: 326)”, the log2 fold change was -0.223.

For the target “UniProt Q8R1H0 (peptide sequence: RSEGLPSECR, peptide start residue: 60)”, the log2 fold change was found to be 0.0825.

Take “UniProt Q8R0A5 (peptide sequence: MEEVRGENEGKLEK, peptide start residue: 1)”: the log2 fold change was -0.251.

“UniProt Q8R0L1 (peptide sequence: LKGAPPSHYYESFLEK, peptide start residue: 13)”: the log2 fold change is -0.193.

On to “UniProt Q8R151 (peptide sequence: ASGVDIEEETEKNLEK, peptide start residue: 275)”, for which the log2 fold change is -0.26.

With “UniProt Q8R1P4 (peptide sequence: SFQHYCAEFIR, peptide start residue: 10)”, the log2 fold change was -0.383.

Take “UniProt Q8R1N0 (peptide sequence: NRQDEIK, peptide start residue: 314)”: the log2 fold change was 0.274.

As to “UniProt Q8K2P6 (peptide sequence: EVVIFYHK, peptide start residue: 40)”, the log2 fold change amounted to 0.127.

As for “UniProt Q8R0V5 (peptide sequence: SLAIPFVEVSR, peptide start residue: 110)”, the log2 fold change was -0.135.

For “UniProt Q8K558 (peptide sequence: SSDSGLPSDIPHVR, peptide start residue: 228)”, the log2 fold change is -0.126.

Take “UniProt Q8R0X7 (peptide sequence: TTGMGAIYGMAQATIDRK, peptide start residue: 519)”: the log2 fold change turned out to be 0.221.

For “UniProt Q8K2U2 (peptide sequence: GMVPERLPPWLQR, peptide start residue: 69)”, the log2 fold change was 0.515.

Take “UniProt Q8R089 (peptide sequence: SPLAFPAWVRPPETAR, peptide start residue: 230)”: the log2 fold change is 0.0975.

With “UniProt Q8R1J9 (peptide sequence: AVMDNPQHGFWR, peptide start residue: 234)”, the log2 fold change was 0.11.

For “UniProt Q8K4J6 (peptide sequence: GAPAMDSSYAK, peptide start residue: 286)”, the log2 fold change is -0.271.

On to “UniProt Q8K2I9 (peptide sequence: LGSSGSAQPAR, peptide start residue: 113)”, for which the log2 fold change was -0.384.

“UniProt Q8R2L5 (peptide sequence: CVLCEKR, peptide start residue: 66)”: the log2 fold change amounted to 0.363.

Turning to “UniProt Q8K2Q9 (peptide sequence: LIQQLEEERIQHQK, peptide start residue: 272)”, the log2 fold change is -0.214.

“UniProt Q8K4F5 (peptide sequence: IMTFPQQR, peptide start residue: 238)”: the log2 fold change is -0.495.

The values are drawn from the supplement of paper PMC12819154, “High-throughput peptide-centric local stability assay extends protein–ligand identification to membrane proteins, tissues and bacteria” (Nature Structural & Molecular Biology, 2025).
